# Only a part is listed here, and it is no random draw. Most entries show no effect beyond the scatter of the controls.
# Amino acid sequences for entries named in this document (tags omitted). A change or cut given only in a name is not applied to a line headed by its entry.
# UniProt P09148: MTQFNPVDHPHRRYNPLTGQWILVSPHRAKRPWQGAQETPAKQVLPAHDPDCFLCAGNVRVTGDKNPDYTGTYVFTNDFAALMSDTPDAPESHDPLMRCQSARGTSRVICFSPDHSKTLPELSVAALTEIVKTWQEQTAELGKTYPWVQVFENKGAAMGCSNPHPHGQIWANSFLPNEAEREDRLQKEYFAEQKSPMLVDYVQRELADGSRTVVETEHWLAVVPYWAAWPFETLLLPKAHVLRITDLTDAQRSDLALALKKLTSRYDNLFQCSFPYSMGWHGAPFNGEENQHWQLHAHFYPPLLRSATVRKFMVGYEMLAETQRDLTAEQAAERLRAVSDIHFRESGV
# UniProt P06988: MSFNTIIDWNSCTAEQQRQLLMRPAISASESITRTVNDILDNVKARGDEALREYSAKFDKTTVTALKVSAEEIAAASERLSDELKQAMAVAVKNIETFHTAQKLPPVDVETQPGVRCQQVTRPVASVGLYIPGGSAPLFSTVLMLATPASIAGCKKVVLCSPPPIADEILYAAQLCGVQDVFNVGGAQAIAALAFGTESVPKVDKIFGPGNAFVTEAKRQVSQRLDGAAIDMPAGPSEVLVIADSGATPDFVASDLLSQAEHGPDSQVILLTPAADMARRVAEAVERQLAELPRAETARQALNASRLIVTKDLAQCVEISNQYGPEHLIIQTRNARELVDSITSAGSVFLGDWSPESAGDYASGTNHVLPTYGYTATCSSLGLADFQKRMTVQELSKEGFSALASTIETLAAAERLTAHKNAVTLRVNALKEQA
# Compound: Nc1ncnc2c1ncn2[C@@H]1O[C@H](COP(=O)(O)OP(=O)(O)OP(=O)(O)O)[C@@H](O)[C@H]1O [adenosine 5'-triphosphate]
# Experiment: log2 fold change of tryptic peptide abundance, ligand vs vehicle (limited proteolysis) (log2 ratio); higher = more trypsin-susceptible (destabilized)
# Settings: ligand concentration: 5 mM; sample: E. coli desalted lysate; replicate design: treated before aliquoting
# Method: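 HT-PELSA: desalted E. coli K-12 BW25113 lysate (with 12 mM MgCl2) incubated with 5 mM ATP (pH 7) or water for 30 min at 25 C, then a 4 min trypsin pulse at 22 C. Peptides were quantified by DIA-MS (4 replicates). Value is the peptide log2 fold change (treated/control); negative = stabilized. Scale: negative = ligand-stabilized region.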
# 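Further: lysate desalted by size exclusion to strip endogenous ATP, peptide intensities built from DIA-NN precursor signals, and peptides missing any value discarded before comparison.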
row,Target,log2 fold change
1,"UniProt P09148 (peptide sequence: DLTAEQAAER, peptide start residue: 325)",0.356
2,"UniProt P06988 (peptide sequence: MTVQELSK, peptide start residue: 390)",0.553

# Source: the supplement of paper PMC12819154, “High-throughput peptide-centric local stability assay extends protein–ligand identification to membrane proteins, tissues and bacteria” (Nature Structural & Molecular Biology, 2025)
